Source: article PMC3832380
No constants are given. Whether binding was seen depends on the method and setting. Binding seen in cells or lysates may run through a third protein. Some entries that bind do so weakly or less than the wild type.

Amino acid sequences for entries named in this document (tags omitted). A change or cut given only in a name is not applied to a line headed by its entry.
UniProt O08808: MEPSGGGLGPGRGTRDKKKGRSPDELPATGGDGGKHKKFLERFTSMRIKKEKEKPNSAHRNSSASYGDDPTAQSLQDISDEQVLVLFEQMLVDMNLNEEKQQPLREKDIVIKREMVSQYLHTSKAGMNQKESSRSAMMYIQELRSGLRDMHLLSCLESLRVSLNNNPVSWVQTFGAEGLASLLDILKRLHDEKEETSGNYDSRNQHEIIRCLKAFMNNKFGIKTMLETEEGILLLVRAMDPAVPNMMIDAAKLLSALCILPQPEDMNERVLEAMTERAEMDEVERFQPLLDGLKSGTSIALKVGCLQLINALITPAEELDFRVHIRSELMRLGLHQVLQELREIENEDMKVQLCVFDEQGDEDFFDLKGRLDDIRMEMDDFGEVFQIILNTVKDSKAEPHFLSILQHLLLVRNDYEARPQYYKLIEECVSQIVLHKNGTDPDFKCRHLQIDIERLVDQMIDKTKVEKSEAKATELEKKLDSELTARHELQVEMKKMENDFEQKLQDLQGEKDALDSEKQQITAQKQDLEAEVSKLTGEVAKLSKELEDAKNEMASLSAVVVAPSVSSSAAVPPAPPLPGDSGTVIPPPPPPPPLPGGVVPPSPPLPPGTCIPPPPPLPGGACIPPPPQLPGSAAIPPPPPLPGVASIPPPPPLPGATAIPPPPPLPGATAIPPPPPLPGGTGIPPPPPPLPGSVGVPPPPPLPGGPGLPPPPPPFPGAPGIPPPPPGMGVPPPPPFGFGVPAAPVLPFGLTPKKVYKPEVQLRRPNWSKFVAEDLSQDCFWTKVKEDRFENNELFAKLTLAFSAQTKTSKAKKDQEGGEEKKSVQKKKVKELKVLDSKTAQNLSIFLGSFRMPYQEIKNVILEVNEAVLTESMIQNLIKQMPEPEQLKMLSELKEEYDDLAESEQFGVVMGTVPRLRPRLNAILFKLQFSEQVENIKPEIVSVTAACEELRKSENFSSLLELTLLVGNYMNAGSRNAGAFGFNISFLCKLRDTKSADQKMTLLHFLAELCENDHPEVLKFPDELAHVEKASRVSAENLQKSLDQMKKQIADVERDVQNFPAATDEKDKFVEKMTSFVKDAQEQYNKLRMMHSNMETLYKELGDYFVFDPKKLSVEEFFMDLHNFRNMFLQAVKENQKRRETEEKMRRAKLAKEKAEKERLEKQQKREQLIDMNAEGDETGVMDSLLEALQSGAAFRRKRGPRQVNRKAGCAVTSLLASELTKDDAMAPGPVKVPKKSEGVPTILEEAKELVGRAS
UniProt P24063: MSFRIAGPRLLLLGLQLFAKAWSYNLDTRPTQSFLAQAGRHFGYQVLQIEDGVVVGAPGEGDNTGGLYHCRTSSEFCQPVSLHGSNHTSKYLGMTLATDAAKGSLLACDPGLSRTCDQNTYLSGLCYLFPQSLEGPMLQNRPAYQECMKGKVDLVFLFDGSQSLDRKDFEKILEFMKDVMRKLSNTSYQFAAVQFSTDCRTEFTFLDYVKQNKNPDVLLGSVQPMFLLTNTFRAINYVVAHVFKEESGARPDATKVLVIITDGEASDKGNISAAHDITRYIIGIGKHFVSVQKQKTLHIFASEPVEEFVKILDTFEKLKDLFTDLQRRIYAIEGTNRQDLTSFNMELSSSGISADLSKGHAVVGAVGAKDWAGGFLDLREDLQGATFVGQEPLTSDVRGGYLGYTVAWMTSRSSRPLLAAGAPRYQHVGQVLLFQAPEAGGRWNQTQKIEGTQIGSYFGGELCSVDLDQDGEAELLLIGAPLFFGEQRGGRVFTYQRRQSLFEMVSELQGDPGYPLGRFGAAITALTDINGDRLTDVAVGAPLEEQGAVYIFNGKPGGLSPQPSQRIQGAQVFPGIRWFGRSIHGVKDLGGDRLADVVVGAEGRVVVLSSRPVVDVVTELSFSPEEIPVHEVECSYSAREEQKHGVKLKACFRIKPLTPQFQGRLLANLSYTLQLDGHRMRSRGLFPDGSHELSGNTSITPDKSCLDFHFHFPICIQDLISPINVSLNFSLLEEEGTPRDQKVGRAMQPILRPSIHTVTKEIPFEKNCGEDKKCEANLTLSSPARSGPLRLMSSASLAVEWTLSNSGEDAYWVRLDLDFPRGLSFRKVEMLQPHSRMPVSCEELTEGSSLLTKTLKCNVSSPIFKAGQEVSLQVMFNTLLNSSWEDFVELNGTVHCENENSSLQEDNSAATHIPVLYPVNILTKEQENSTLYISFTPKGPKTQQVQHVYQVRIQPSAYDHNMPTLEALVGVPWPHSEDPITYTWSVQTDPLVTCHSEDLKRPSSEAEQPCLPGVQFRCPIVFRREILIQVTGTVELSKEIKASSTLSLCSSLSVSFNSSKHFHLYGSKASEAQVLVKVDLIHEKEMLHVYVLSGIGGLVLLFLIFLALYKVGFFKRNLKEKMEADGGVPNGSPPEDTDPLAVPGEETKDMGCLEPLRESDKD

Molecular target: mammalian diaphanous-related formin 1 (mDia1) (mouse (endogenous in T-lymphoblasts)) (UniProt O08808)
Assay: co-IP; anti-mDia1 antibody (or control IgG) immunoprecipitation from lysates of wild-type T-lymphoblasts plated on ICAM-1 (3 μg/ml) and stimulated with 100 ng/ml CXCL12 for 30 min; lysis buffer 1% Triton X-100, 150 mM KCl, 150 mM NaCl; 4°C; blots with anti-mDia1, anti-GSK3β or anti-LFA-1

binding: binds
Substance: lymphocyte function-associated antigen 1 (LFA-1) (from UniProt P24063 24-1162; P11835 24-771) (complex)
